According to PubChem BioAssay AID493014 (National Center for Advancing Translational Sciences (NCATS), 2011):
Among all 340,000 compounds or so, about 170 (0.05%) were called active. These results got no clear call from the source, so the numbers are uncertain. The call rests on the fitted dose curve; in most records, active means well fitted inhibition curve with a large enough effect in the signal ratio, with a control signal flat (not every such curve was filed as active); inconclusive means small, poorly fitted or top-dose-only effect, or effect the other way, or a change in a side signal; inactive means flat fitted curve, though single readings scatter; the % refers to the signal ratio. Some tests of the compounds listed are not included; inactive here does not mean inactive elsewhere.

Test: qHTS Assay to Find Inhibitors of Chronic Active B-Cell Receptor Signaling
Details: ABC-DLBCL IkBa-CBG/CBR reporter, luminescence ratio (green luciferase fused to IkBa over red control in TMD8 lymphoma cells), 4 h
Description: NIH Molecular Libraries Probe Production Network [MLPCN] NIH Chemical Genomics Center [NCGC] MLPCN Grant: 1 R03 DA031086-01A1 PI Name: Dr. R. Eric Davis NCGC Assay Overview: Diffuse large B-cell lymphoma (DLBCL) is the most common category of non-Hodgkin lymphoma, with ~20,000 new cases per year in the United States. DLBCL should be regarded as a collection of different neoplasms. Microarray gene expression analysis has defined two principal types of DLBCL, named for their similarity to normal B cell stages or activation states: a germinal center B-cell (GCB) type, and an activated B-cell (ABC) type. In ABC-DLBCL, a constitutive high-level activity of the NF-kappaB family of transcription factors has been observed (1) and NF-kappaB target genes are more highly expressed in ABC primary tumors than in GCB tumors. Functional studies have shown a constitutive high-level activity of the IkappaB (inhibitor of kappa-B) kinase (IKK) complex. […] Following the addition of doxycycline to induce expression of the luciferases, the green luminescence in control cultures rises only slowly because the CBG fusion partner IkappaBalpha is targeted by IKK activity for rapid degradation. In contrast, green luminescence rises rapidly in the presence of proteasome inhibitors or IKK inhibitors. The rise in red luminescence of CBR is not affected by proteasome or IKK inhibitors, and serves as normalization for cell number and nonspecific effects. […]
NCGC Assay Protocol Summary: Cells were seeded in 1536-well plates at 5000 cells/4uL in IMDM medium containing 0.5% FBS, w/o phenol red, 1% penicillin/streptomycin. […] The plates were measured on a ViewLux plate reader for green luminescence (540/20 nm filter) and red luminescence (618/8 nm filter). The green and red luminescent signals were corrected for red and green luminescence filter overlap using previously determined filter calibration constants (determined using the procedure outlined in the Promega Technical Manual; REF 4). The %Activity was determined from the ratio of corrected green/red luminescent values. […]
Potency means the concentration at half of the fitted maximal effect.

Row | Compound | Potency
1 | O=C(NCC1(N2CCCCC2)CCCCC1)c1cccc(Br)c1 | inconclusive: 6.31 µM
2 | CCCCC(CC)C(=O)N1CCN(C/C=C/c2ccccc2)CC1 (stereo not drawn) | inconclusive: 5.17 µM
3 | COc1ccc(Cl)cc1C(=O)NCC1(N(C)C)CCCCC1 | inconclusive: 12.6 µM
